Primary screen of a compound library

Protein sequences, listed by entry. Tags and fused reporters are not part of them.
UniProt I6X8D2, whole entry: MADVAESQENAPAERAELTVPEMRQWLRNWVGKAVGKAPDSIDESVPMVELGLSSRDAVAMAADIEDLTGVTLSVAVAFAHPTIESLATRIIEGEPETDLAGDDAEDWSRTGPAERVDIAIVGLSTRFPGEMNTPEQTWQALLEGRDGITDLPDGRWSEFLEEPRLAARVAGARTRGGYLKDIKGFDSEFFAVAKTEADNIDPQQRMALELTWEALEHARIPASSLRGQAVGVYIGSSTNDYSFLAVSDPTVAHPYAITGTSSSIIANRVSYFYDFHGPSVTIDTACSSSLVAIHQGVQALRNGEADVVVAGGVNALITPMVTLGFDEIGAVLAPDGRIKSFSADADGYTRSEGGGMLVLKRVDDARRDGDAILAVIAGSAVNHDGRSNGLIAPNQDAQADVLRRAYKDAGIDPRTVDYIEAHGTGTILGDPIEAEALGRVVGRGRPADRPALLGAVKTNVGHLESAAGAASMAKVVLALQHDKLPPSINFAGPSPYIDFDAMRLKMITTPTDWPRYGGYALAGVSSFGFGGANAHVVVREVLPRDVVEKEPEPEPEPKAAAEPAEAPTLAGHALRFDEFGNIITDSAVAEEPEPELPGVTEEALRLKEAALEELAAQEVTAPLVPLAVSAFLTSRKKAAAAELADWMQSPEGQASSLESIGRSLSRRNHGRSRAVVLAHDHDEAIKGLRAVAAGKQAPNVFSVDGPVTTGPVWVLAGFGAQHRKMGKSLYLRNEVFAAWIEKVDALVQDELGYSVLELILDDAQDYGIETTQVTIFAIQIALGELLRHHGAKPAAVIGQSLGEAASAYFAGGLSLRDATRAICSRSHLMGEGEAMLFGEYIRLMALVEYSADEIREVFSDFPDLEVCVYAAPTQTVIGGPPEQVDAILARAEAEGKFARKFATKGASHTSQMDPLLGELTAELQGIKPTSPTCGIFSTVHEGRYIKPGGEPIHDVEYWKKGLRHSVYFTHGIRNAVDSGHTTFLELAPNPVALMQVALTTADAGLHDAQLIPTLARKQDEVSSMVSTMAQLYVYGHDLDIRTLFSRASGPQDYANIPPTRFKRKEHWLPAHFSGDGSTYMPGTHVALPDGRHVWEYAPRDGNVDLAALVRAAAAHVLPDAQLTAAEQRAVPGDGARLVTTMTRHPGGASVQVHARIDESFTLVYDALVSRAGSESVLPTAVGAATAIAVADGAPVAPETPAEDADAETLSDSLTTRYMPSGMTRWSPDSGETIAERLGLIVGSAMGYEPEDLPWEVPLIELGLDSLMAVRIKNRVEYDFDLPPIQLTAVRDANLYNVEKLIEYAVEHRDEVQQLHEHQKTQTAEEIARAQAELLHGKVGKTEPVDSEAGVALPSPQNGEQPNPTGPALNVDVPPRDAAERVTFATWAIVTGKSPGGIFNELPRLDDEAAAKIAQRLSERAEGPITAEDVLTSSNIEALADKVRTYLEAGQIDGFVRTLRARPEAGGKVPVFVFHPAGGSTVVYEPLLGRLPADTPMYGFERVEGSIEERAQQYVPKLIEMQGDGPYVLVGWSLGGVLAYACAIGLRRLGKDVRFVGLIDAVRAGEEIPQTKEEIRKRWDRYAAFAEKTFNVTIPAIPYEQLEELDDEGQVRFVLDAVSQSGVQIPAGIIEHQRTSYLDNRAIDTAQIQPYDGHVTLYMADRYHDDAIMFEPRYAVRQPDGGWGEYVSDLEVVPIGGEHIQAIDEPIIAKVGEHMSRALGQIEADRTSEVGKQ

From ChEMBL document CHEMBL3988442, “University of Dundee, Small-Polar-MMV Screening Library” (2021).

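Polyketide synthase Pks13, Mycobacterium tuberculosis (UniProt I6X8D2). Enzyme assay of the thioesterase domain of polyketide synthase 13; the read-out is not stated. Concentration: 30 µM. Higher reads as stronger inhibition (inferred from which compounds were picked for retests). Of about 67,000 compounds tested this way, about 300 (0.46%) reached 50% or more in at least one test.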

Values are the deposited “Percent Effect”, in %. How 0% and 100% were set is not recorded. Most values in the screen are low, and negative values occur. This is an unselected part of the compounds tested.

- Cc1cnn(C2CCCN(C(=O)c3cc(-c4ccccc4C)n[nH]3)C2)c1 (configuration not stated) | 6.034%
- COc1ccc(C[C@H]2CN(C(=O)c3ccncc3)CC[C@@H]2OC)cc1 | -5.174%
- O=c1[nH]nc2c(S(=O)(=O)N3CCCCCC3)cccn12 | 2.008%
- CN1CCCC1c1cc2cccnc2n1Cc1ccc(F)cc1 (configuration not stated) | 5.487%
- Cc1nc(C)n(CC(=O)N2CCCC(c3nc(C)n4c(C)csc34)C2)n1 (configuration not stated) | 8.976%
- Cc1nc2c(NCC(C)N(C)c3ccccc3)ncnc2o1 (configuration not stated) | -15.95%
- O=C(c1ccc(Cn2cnnn2)cc1)N1CC[C@H](CO)[C@H](O)C1 | 6.31%
- Cc1nc(C2CCCN(C(=O)c3c[nH]c(C(C)C)n3)C2)no1 (configuration not stated) | -10.65%
- CC(=O)Cc1c(C)nn(-c2cncc(N)c2)c1C | 0.1171%
- CCc1nc(CN2CCN(CC(O)c3ccccc3)CC2)no1 (configuration not stated) | -36.58%
- Cc1ccc(CNC(=O)c2oc3ccccc3c2CN(C)C)n1C | -30.06%
- COCCN(C)CCN1CC2(CCN(C3CCCCC3)CC2)OC1=O | -15.26%
- Cc1ccc2c(n1)N(CC(C)C)CCN(S(C)(=O)=O)C2 | 2.335%
- O=C(c1ccc(=O)[nH]n1)N(CCO)Cc1cc(Br)ccc1F | -8.119%
- CN(C)CC(=O)N1CCN(C(=O)c2cccc3[nH]ncc23)CC1 | -1.271%
- c1cnn(CC2CCCCN2c2ncnc3ccsc23)c1 (configuration not stated) | -10.9%
- CS(=O)(=O)N1CCC2(CC1)COC(COc1cccnc1)C2 (configuration not stated) | -21.08%
- Cc1[nH]ncc1CCCNC(=O)Nc1ccccc1 | 15.41%
- COc1ccccc1OCCNCc1c(C(C)C)nn(C)c1N(C)C | -33.57%
- FCCOc1cccc(NCc2c[nH]nc2-c2cccnc2)c1 | -19.49%
- Cc1nc(CN2CCN(S(=O)(=O)N3CCOCC3)CC2)oc1C | -21%
- CC(C)c1ncncc1C(=O)N1CCN(Cc2cccnc2)CC1 | -15.86%
- CN1CCc2nc(C3CCCN(C(=O)CC4CCCCC4)C3)ncc2C1 (configuration not stated) | 4.123%
- CC(C)(C)c1ccc(C(=O)C2CCCN(C(=O)CNS(C)(=O)=O)C2)cc1 (configuration not stated) | 4.109%
- c1ccc(COC[C@@H]2CCC[C@]23CN(Cc2nccs2)CCO3)nc1 | 9.283%
- COCCN1CCN(c2nc(O)cc(Cc3ccccc3F)n2)CC1 | -7.086%
- c1ccc(CC2CCN(Cc3ccnc(-c4cccnc4)n3)CC2)cc1 | -45.27%
- Cc1nc2n(n1)CC(Nc1ccnc(-c3ccccc3)n1)CC2 (configuration not stated) | -26.78%
- CCc1noc(CN(C)C(=O)COc2cccc(Cl)c2C)n1 | -16.27%
- CCc1ccc(C(=O)Nc2ccc(CC3CC(=O)NC3=O)cc2)cc1 (configuration not stated) | -12.49%
- N#Cc1ccc(CN2CCC(CCc3ccc(O)cc3)CC2)cc1 | -40.4%
- Nc1nc2nc(C3CCCN(C(=O)c4cnccn4)C3)ccc2s1 (configuration not stated) | 8.885%
- CCN1CCOCC12CCN(C(=O)Cc1cccs1)CC2 | -18.33%
- COCCNC(=O)Nc1ccc(CN2CCOC2=O)cc1 | -26.21%
- CCOC(=O)CN1CCC(C(=O)c2cc(F)ccc2F)CC1 | -12.02%
- O=C(NC1CCCC1)c1ccnc(C2CCNCC2)c1 | -24.59%
- Cc1noc(C)c1CNc1ccc2nc(C3CC3)sc2c1 | -48.42%
- Cc1cccc(C(=O)N2CC(Cc3nccc4ccn(C)c34)C2)n1 | -5.297%
- CCCC(=O)NCCc1nc2cc(-c3ccc(OC)cc3)ncn2n1 | 2.83%
- CCOC(=O)C1CCN(Cc2csc(-c3ccc(C)o3)n2)CC1 | -8.864%
- CS(=O)(=O)NC1CCN(C(=O)NCCc2ccccc2F)CC1 | -7.787%
- OC1(CNCCCN2CCc3ccccc32)CCNC1 (configuration not stated) | -14.04%
- CC(C)c1nc(C2CCCN2CCCc2nc3ccccc3o2)no1 (configuration not stated) | 20.02%
- COc1ccc(Cc2nc3c([nH]2)CC(C)(C)CNC3=O)cc1OC | -25.73%
- CCn1nc(C)cc1C(=O)N1C[C@@H](CN(C)C)[C@@H](CO)C1 | -6.989%
- COCCC1(C(=O)O)CCCN(CCOCc2ccccc2)C1 (configuration not stated) | -13.75%
- CN1CCC(O)(CNCc2ccc(F)c(C(F)(F)F)c2)CC1 | -21.26%
- CCc1ccc(C(=O)N2CCCC2c2c(C)nn(C)c2OC)o1 (configuration not stated) | 12.16%
- CCc1ccc(CNc2cc(-c3ccoc3C)nn2CCO)o1 | 9.487%
- CC(CCn1cccn1)Nc1ccc(-c2nccn2C)nn1 (configuration not stated) | 8.636%
- CCc1nc(C2CCCN2C(=O)CCCn2cccn2)no1 (configuration not stated) | -3.985%
- CC(C)n1[nH]c(=O)c2c1NC(=O)CC2C1CCCCC1 (configuration not stated) | -6.77%
- CSC(C)C(=O)NS(=O)(=O)c1ccc(F)c(C(F)(F)F)c1 (configuration not stated) | -12.9%
- CS(=O)(=O)c1ccccc1-n1cc(NC(=O)CC(F)(F)F)cn1 | -15.24%

For reference, 3 entries once more:

SMILES,effect
Cc1ccc(CNC(=O)c2oc3ccccc3c2CN(C)C)n1C,-30.06
CC(C)c1nc(C2CCCN2CCCc2nc3ccccc3o2)no1 (configuration not stated),20.02
CCn1nc(C)cc1C(=O)N1C[C@@H](CN(C)C)[C@@H](CO)C1,-6.989